Record: PubChem BioAssay AID652259 (Drosophila RNAi Screening Center, 2013)
The screen tested about 22,000 reagents; this is a random part of those with a known target gene and a result. Of all reagents, 233 (1.1%) got an active call. 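Light values are raw, unnormalised plate reads; the ratio scores behind the reporter calls were not deposited.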 Entries without a mark were called inactive. The numbers tell different reagents against one gene apart. Names joined by + are all predicted targets of the reagent. Not given: the amount of reagent, the time to read-out, the dose of the treatment.

Purpose: 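Knock-downs that push a Wingless-driven reporter up or down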 (primary screen)
System: Drosophila clone 8 imaginal disc epithelial cells
Reagent: long dsRNA against Drosophila genes
Conditions: pathway stimulated by co-transfected Wingless expression plasmid
Measured: 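Dual luciferase reads per well after Wingless plasmid stimulation: reporter firefly light and Renilla control light; activity is firefly divided by Renilla, a ratio not deposited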
Direction: firefly reporter light: higher = more Wg reporter light, before normalisation; Renilla control light: higher = more transfected or surviving cells
Active means: 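Strong candidates differ from their plate mean by at least two out of four per-plate statistical tests; weak candidates meet just one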
Meaning of the calls: active = candidate regulator (raises or lowers reporter); inactive = not a candidate

For ben #1, the values are firefly reporter light, replicate 1 = 2277; firefly reporter light, replicate 2 = 8316; Renilla control light, replicate 1 = 947; Renilla control light, replicate 2 = 2265.
ben #2 gave firefly reporter light, replicate 1 = 24029; Renilla control light, replicate 1 = 9910.
Silencing of mip130 resulted in: firefly reporter light, replicate 1 = 22651; Renilla control light, replicate 1 = 16052.
For CG34327 #1, the values are firefly reporter light, replicate 1 = 21088; Renilla control light, replicate 1 = 11139.
After knock-down of CG34327 #2, the record shows firefly reporter light, replicate 1 = 7.61e5; firefly reporter light, replicate 2 = 8.97e5; Renilla control light, replicate 1 = 3.68e5; Renilla control light, replicate 2 = 3.60e5.
With knock-down of CG34039, the screen gave firefly reporter light, replicate 1 = 2107; Renilla control light, replicate 1 = 1329.
With knock-down of CG14445, the screen gave firefly reporter light, replicate 1 = 19666; Renilla control light, replicate 1 = 7053.
After knock-down of CG10737, the screen gave firefly reporter light, replicate 1 = 11413; Renilla control light, replicate 1 = 3562.
SrpRalpha gave firefly reporter light, replicate 1 = 1447; firefly reporter light, replicate 2 = 6971; Renilla control light, replicate 1 = 1059; Renilla control light, replicate 2 = 3389.
Act87E scored firefly reporter light, replicate 1 = 5.95e5; firefly reporter light, replicate 2 = 5.49e5; Renilla control light, replicate 1 = 1.31e5; Renilla control light, replicate 2 = 1.24e5.
Depletion of NC2alpha came out at: reporter change call, replicate 1 = Wg reporter activity raised (active); firefly reporter light, replicate 1 = 19224; Renilla control light, replicate 1 = 1537.
CG32727 scored firefly reporter light, replicate 1 = 3029; Renilla control light, replicate 1 = 912.
For CG16790, the values are firefly reporter light, replicate 1 = 16305; Renilla control light, replicate 1 = 2725.
CG13365 showed firefly reporter light, replicate 1 = 21350; Renilla control light, replicate 1 = 18356.
Knock-down of Drice resulted in: firefly reporter light, replicate 1 = 4506; firefly reporter light, replicate 2 = 10352; Renilla control light, replicate 1 = 1520; Renilla control light, replicate 2 = 3127.
For ssp7 the deposit lists firefly reporter light, replicate 1 = 2289; Renilla control light, replicate 1 = 337.
Rrp1 showed firefly reporter light, replicate 1 = 3428; firefly reporter light, replicate 2 = 8128; Renilla control light, replicate 1 = 1691; Renilla control light, replicate 2 = 2936.
Knock-down of Jon99Fii + Jon99Cii + Jon99Ciii + 1 more came out at: firefly reporter light, replicate 1 = 11098; Renilla control light, replicate 1 = 3968.
Against CG13282, the values are firefly reporter light, replicate 1 = 1607; firefly reporter light, replicate 2 = 5797; Renilla control light, replicate 1 = 928; Renilla control light, replicate 2 = 2723.
Silencing of vilya came out at: firefly reporter light, replicate 1 = 11584; Renilla control light, replicate 1 = 10641.
With knock-down of Septin2, the screen gave firefly reporter light, replicate 1 = 5353; firefly reporter light, replicate 2 = 6162; Renilla control light, replicate 1 = 1338; Renilla control light, replicate 2 = 1627.
Against Egfrap #1, the entry reads firefly reporter light, replicate 1 = 1012; firefly reporter light, replicate 2 = 7946; Renilla control light, replicate 1 = 1191; Renilla control light, replicate 2 = 2993.
Knock-down of Egfrap #2 came out at: firefly reporter light, replicate 1 = 836; firefly reporter light, replicate 2 = 6202; Renilla control light, replicate 1 = 1132; Renilla control light, replicate 2 = 3189.
Knock-down of Cerk resulted in: firefly reporter light, replicate 1 = 4912; Renilla control light, replicate 1 = 2387.
Acp62F showed firefly reporter light, replicate 1 = 4499; Renilla control light, replicate 1 = 1740.

No new results follow: entries from further up.
CG34327 #1: firefly reporter light, replicate 1 = 21088; Renilla control light, replicate 1 = 11139
CG34327 #2: firefly reporter light, replicate 1 = 7.61e5; firefly reporter light, replicate 2 = 8.97e5; Renilla control light, replicate 1 = 3.68e5; Renilla control light, replicate 2 = 3.60e5
CG34039: firefly reporter light, replicate 1 = 2107; Renilla control light, replicate 1 = 1329
CG14445: firefly reporter light, replicate 1 = 19666; Renilla control light, replicate 1 = 7053
